PubChem BioAssay AID1259254 | NCATS, 2017
Purpose: 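Genome-wide screen for genes that prevent DNA re-replication in cancer cells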 (primary screen). Cell system: human HCT116 colorectal cancer cells. Reagents: single siRNA against human genes. Time to read-out: 3 days. Measured: 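Nuclei stained with Hoechst and imaged; cell-cycle phase assigned by DNA content; G2 share scaled per plate, non-targeting siRNA 0%, GMNN siRNA 100%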. Scale: G2 robust z-score and G2 cells, % of GMNN control: higher = more G2 cells, more excess DNA replication; raw share of cells in G2: higher = larger share of cells with G2 DNA content. Call rule: 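Active siRNAs have a G2 robust z of 5 or more median absolute deviations over the median, which in these data means about 38% or higher of GMNN control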.
In all, the deposit lists about 59,000 reagents; this is a random part of them. About 1,550 of all reagents (2.6%) were called active. 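G2 share is only a proxy for re-replication; each gene was hit by three separate siRNAs, and active genes were retested.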 Raw values are not corrected between plates. Entries without a mark were called inactive. The numbers tell different reagents against one gene apart. Not given: the amount of reagent.

Gene | reagent no. | G2 robust z-score | G2 cells, % of GMNN control | raw share of cells in G2 (%)
BBS4 (Bardet-Biedl syndrome 4) | 1 | 1.29 | 12 | 8.81
BBS4 (Bardet-Biedl syndrome 4) | 2 | -0.0401 | 2.69 | 6.03
BBS4 (Bardet-Biedl syndrome 4) | 3 | -0.696 | -1.93 | 3.27
ZDHHC8BP (ZDHHC8B, pseudogene) | 1 | 1.06 | 10.4 | 7.31
ZDHHC8BP (ZDHHC8B, pseudogene) | 2 | -0.233 | 1.33 | 3.32
ZDHHC8BP (ZDHHC8B, pseudogene) | 3 | -0.891 | -3.3 | 1.92
IL17D (interleukin 17D) | 1 | 0.204 | 4.4 | 5.18
IL17D (interleukin 17D) | 2 | 0.234 | 4.61 | 6.21
IL17D (interleukin 17D) | 3 | -0.675 | -1.78 | 2.6
FSIP1 (fibrous sheath interacting protein 1) | 1 | -0.495 | -0.513 | 3.42
FSIP1 (fibrous sheath interacting protein 1) | 2 | 0.0178 | 3.09 | 4
FSIP1 (fibrous sheath interacting protein 1) | 3 | 0.41 | 5.86 | 4.61
RING1 (ring finger protein 1) | 1 | -0.89 | -3.29 | 2.15
RING1 (ring finger protein 1) | 2 | -0.678 | -1.8 | 4
RING1 (ring finger protein 1) | 3 | 0.991 | 9.94 | 6.71
C2orf72 (chromosome 2 open reading frame 72) | 1 | 1.21 | 11.5 | 7.83
C2orf72 (chromosome 2 open reading frame 72) | 2 | 0.335 | 5.32 | 5.1
C2orf72 (chromosome 2 open reading frame 72) | 3 | 1.51 | 13.6 | 7.4
TRABD2B (TraB domain containing 2B) | 1 | -1.01 | -4.12 | 2.36
TRABD2B (TraB domain containing 2B) | 2 | 0.128 | 3.87 | 5.09
TRABD2B (TraB domain containing 2B) | 3 | 0.338 | 5.35 | 6.93
ZDHHC9 (zDHHC palmitoyltransferase 9) | 1 | 1.3 | 12.1 | 8.45
ZDHHC9 (zDHHC palmitoyltransferase 9) | 2 | -0.534 | -0.79 | 5.59
ZDHHC9 (zDHHC palmitoyltransferase 9) | 3 | 0.0514 | 3.33 | 5.47
UBE2E2 (ubiquitin conjugating enzyme E2 E2) | 1 | 6.82 (active) | 51 | 21.3
UBE2E2 (ubiquitin conjugating enzyme E2 E2) | 2 | 0.728 | 8.09 | 7.27
UBE2E2 (ubiquitin conjugating enzyme E2 E2) | 3 | -0.673 | -1.77 | 4.85
CYP3A43 (cytochrome P450 family 3 subfamily A member 43) | 1 | -0.0372 | 2.71 | 5.21
CYP3A43 (cytochrome P450 family 3 subfamily A member 43) | 2 | -1.22 | -5.58 | 3.33
CYP3A43 (cytochrome P450 family 3 subfamily A member 43) | 3 | 0.32 | 5.22 | 6.19
PDK4 (pyruvate dehydrogenase kinase 4) | 1 | -0.193 | 1.61 | 6.14
PDK4 (pyruvate dehydrogenase kinase 4) | 2 | -0.837 | -2.92 | 4.43
PDK4 (pyruvate dehydrogenase kinase 4) | 3 | -0.583 | -1.13 | 3.63
FOS (Fos proto-oncogene, AP-1 transcription factor subunit) | 1 | 0.304 | 5.1 | 5.48
FOS (Fos proto-oncogene, AP-1 transcription factor subunit) | 2 | -0.454 | -0.229 | 5.18
FOS (Fos proto-oncogene, AP-1 transcription factor subunit) | 3 | 0.889 | 9.23 | 8.59
TNNT2 (troponin T2, cardiac type) | 1 | 5.45 (active) | 41.3 | 23.4
TNNT2 (troponin T2, cardiac type) | 2 | 1.01 | 10 | 7.88
TNNT2 (troponin T2, cardiac type) | 3 | -0.209 | 1.5 | 3.88
TMPRSS9 (transmembrane serine protease 9) | 1 | 0.271 | 4.88 | 7.66
TMPRSS9 (transmembrane serine protease 9) | 2 | 0.626 | 7.37 | 6.9
TMPRSS9 (transmembrane serine protease 9) | 3 | -0.812 | -2.75 | 3.24
JAK1 (Janus kinase 1) | 1 | 1.89 | 16.2 | 11
JAK1 (Janus kinase 1) | 2 | -0.267 | 1.09 | 5.78
JAK1 (Janus kinase 1) | 3 | -0.855 | -3.05 | 2.95
ABHD11 (abhydrolase domain containing 11) | 1 | 1.23 | 11.6 | 8.39
ABHD11 (abhydrolase domain containing 11) | 2 | 1.28 | 12 | 10.4
ABHD11 (abhydrolase domain containing 11) | 3 | 2.91 | 23.5 | 13.5

Part of the list above, showing only “raw share of cells in G2 (%)”.
RING1 (ring finger protein 1) #3 = 6.71
C2orf72 (chromosome 2 open reading frame 72) #1 = 7.83
C2orf72 (chromosome 2 open reading frame 72) #2 = 5.1
C2orf72 (chromosome 2 open reading frame 72) #3 = 7.4
